We go through one compound from ChEMBL document CHEMBL3046476, “Qsar for Acetylcholinesterase and Butyrylcholinesterase Inhibition by Cardiovascular Drugs and Benzodiazepines” (Med Chem Res, 2005).

Sequences of proteins named here, by UniProt entry; tags and fusion partners are left off.
UniProt P81908, whole entry: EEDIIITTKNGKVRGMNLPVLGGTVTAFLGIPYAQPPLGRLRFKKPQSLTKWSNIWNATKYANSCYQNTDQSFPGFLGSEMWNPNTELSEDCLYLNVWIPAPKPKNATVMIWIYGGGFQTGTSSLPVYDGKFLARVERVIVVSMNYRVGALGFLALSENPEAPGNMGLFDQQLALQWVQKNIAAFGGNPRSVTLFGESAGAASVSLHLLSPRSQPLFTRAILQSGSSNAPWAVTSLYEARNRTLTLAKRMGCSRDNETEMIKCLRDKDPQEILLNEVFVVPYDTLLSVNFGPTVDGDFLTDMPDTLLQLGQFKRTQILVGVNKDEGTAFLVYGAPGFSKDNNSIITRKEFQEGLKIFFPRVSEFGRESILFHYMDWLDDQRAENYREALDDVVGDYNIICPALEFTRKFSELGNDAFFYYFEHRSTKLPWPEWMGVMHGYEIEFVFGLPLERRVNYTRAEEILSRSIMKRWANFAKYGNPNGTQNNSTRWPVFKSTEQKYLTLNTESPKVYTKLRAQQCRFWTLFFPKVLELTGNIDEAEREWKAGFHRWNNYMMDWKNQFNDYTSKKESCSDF

For this experiment, the target named is Cholinesterase (Equus caballus, UniProt P81908). The experiment can be described thus: Inhibition of Equus caballus (horse) serum butyrylcholinesterase (BChE) assessed as inhibition of BTCh hydrolysis by Ellman method. (In general: In Ellman's method for cholinesterases, released thiocholine reacts with DTNB.)

As for `CN1C(=O)CN=C(c2ccccc2)c2cc(Cl)ccc21` [DIAZEPAM], the Ki reads like this: (read-out: Ki) 0.043 µM; (read-out: pKi (converted)) 5.01 µM.
